This note sets out measurements from publication PMC9107480.

Sequences of proteins named here, by UniProt entry; tags and fusion partners are left off. A change or cut given only in a name is not applied to a line headed by its entry.
UniProt P49841: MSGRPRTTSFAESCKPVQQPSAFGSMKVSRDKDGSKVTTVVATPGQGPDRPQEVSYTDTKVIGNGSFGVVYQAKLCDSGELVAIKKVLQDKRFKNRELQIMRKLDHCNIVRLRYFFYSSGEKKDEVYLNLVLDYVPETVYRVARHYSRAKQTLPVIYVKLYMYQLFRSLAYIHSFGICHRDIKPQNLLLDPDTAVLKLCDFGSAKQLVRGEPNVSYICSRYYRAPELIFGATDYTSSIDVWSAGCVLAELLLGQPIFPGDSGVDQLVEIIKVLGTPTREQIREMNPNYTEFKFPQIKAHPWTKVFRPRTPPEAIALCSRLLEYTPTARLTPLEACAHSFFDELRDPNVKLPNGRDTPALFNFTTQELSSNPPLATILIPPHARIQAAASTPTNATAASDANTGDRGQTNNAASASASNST
UniProt O60573: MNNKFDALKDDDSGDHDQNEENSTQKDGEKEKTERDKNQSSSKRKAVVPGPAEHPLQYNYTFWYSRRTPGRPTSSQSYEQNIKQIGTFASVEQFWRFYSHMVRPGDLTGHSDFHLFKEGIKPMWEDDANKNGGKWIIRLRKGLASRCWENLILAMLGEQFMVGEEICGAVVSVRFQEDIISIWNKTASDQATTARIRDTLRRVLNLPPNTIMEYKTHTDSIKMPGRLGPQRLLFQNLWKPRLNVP

No constants are given. Whether binding was seen depends on the method and setting. For some of these results: In cells and extracts the contact can be indirect. Some binding calls cover weakened binding; strength is not graded here.

The target of experiment [1] is GSK3β (endogenous) (human (endogenous; cell line of the IP not shown, all cell lines of the paper are human)) (UniProt P49841). As to the kind of experiment: co-IP; endogenous proteins from cell extracts; for GSK3β: anti-GSK3β antibody or IgG, cells in normal or hypoxia (1% O2) condition for 24 h (less eIF4E2 under hypoxia).
The target in experiment [2] is T1, RBM38 (endogenous) (human (endogenous; cell line of the IP not shown, all cell lines of the paper are human)) (UniProt Q9H0Z9).
T1 sequence: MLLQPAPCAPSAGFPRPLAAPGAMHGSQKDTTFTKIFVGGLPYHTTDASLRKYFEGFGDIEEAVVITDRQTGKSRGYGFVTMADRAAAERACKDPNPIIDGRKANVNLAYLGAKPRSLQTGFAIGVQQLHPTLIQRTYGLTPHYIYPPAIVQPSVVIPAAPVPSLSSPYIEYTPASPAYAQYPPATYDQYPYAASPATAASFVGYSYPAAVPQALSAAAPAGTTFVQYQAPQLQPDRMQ
Described as above.

Another experiment has as its target eIF4E2 (human) (UniProt O60573). As to the kind of experiment: pull-down; GST pull-down of eIF4E2 and GSK3β with peptide G3-I added.
The target in experiment [3] is GSK3β-HOTag6 (UniProt P49841). As to the kind of experiment: SPPIER (phase separation-based protein interaction reporter); cells expressing the SPPIER reporter, 2-h hypoxia exposure.
The target in experiment [4] is GSK3β-HOTag6 (UniProt P49841). Kind of experiment: SPPIER (phase separation-based protein interaction reporter); cells transiently expressing EGFP-eIF4E2-HOTag3-T2A-GSK3β-HOTag6; EGFP droplets; normal conditions, or 2 mM L-Arginine for 1 h (interaction inhibited).
Experiment [5] has as its target Glycogen synthase kinase-3β (UniProt P49841). As to the kind of experiment: pull-down; GST pull-down of eIF4E2 and GSK3β with peptide e2-I added.
Experiment [6] has the same target. As to the kind of experiment: pull-down; GST pull-down of eIF4E2 and GSK3β with peptide G3-I added.
Experiment [7] has the same target. As to the kind of experiment: pull-down; GST pull-down of eIF4E2 and GSK3β with nanobody Nb-28A1 added.
The target is the same in experiment [8]. Kind of experiment: pull-down; GST pull-down; the paper calls the interactions direct; which partner carried GST not shown.
Experiment [9] addresses T2, RNA-binding protein RBM38 (UniProt Q9H0Z9).
T2 sequence: T1 sequence
Described as above.

In the case of “eIF4E2 (endogenous) (from UniProt O60573 1-245)”, the binding result in [1] and in experiment [2] was “binds” in each case.
In the case of “Peptide G3-I (from UniProt P49841 314-329)”, in the experiment with eIF4E2 (human), the binding entry is “binds”.
On to “EGFP-eIF4E2-HOTag3 (from UniProt O60573 1-245)”, for which the binding entry with GSK3β-HOTag6 [3] is given as “no binding (condition: 2-h hypoxia exposure)”; with GSK3β-HOTag6 [4], “binds”.
With eIF4E2 (from UniProt O60573 1-245), the binding result in [5], in experiment [6], in experiment [7], in experiment [8] and in [9] was “binds” each time.
